Experiment: general procedure: Fmoc solid-phase peptide synthesis; PS Rink-Amide MBHA resin, 0.32 mmol g^-1; DIC / Oxyma Pure
Settings: whole synthesis, scale 0.250 mmol

Substance | crude mass
Int-A (Example 4) | 300 mg
Int-A (Example 3) | 399 mg

From patent US11814445B2 (Ra Pharmaceuticals, Inc., priority 2018, dated 2023)
